assay: Dichroic ratio and orientation order of light absorption anisotropic film; conditions: orientation order of the light absorption anisotropic film, S=(D-1)/(D+2) calculated from the dichroic ratio

Compared with CCCCCCOc1ccc(N=Nc2ccc(C=Cc3cc(OCCOCCOCCOC)c(C=Cc4ccc(N=Nc5ccc(OCCCCCC)cc5)cc4)cc3OC)cc2)cc1 [A-3], CCCCCCOc1ccc(N=Nc2ccc(C=Cc3cc(OCCOCCOCCO)c(C=Cc4ccc(N=Nc5ccc(OCCCCCC)cc5)cc4)cc3OC)cc2)cc1 [A-4] is lower in “Order S” value: 0.94 for the first, 0.93 for the second.

Going from CCCCCCCCCCCCCCCCCCOc1cc(C=Cc2ccc(N=Nc3ccc(OCCCCCC)cc3)cc2)c(OC)cc1C=Cc1ccc(N=Nc2ccc(OCCCCCC)cc2)cc1 [A-9] to CCCCCCOc1ccc(N=Nc2ccc(C=Cc3cc(OCCOCCOCCOC)c(C=Cc4ccc(N=Nc5ccc(OCCCCCC)cc5)cc4)cc3OCCOCCOCCOC)cc2)cc1 [A-10], the “Order S” value rises from 0.72 to 0.87.

In the case of CCCCCCOc1ccc(/C=C/c2ccc(/C=C/c3cc(OCCOCCOCCOCCOCCOCCO)c(/C=C/c4ccc(/C=C/c5ccc(OCCCCCC)cc5)cc4)cc3OC)cc2)cc1 [Comparative Compound 2, reference compound], the “Order S” value is reported as 0.90.

From patent US9011988B2, “Liquid-crystal compound, liquid-crystal composition, light absorption anisotropic film, and liquid-crystal display device” (Fujifilm Corporation, priority 2010, dated 2015)
